The target in this assay is NTD domain of RBPJ. Nature of the assay: co-IP; full-length and truncated plasmids of TRIM59 and RBPJ transfected into HEK-293T cells; Co-IP.

Results are given in words; binding and its absence hold for the method and conditions named. Binding seen in cells or lysates may run through a third protein. A result given as binding can be weak or reduced; the word gives no strength.

B1: TRIM59, full-length plasmid in HEK-293T cells (protein, UniProt Q8IWR1 1-403)
chain: MHNFEEELTCPICYSIFEDPRVLPCSHTFCRNCLENILQASGNFYIWRPLRIPLKCPNCRSITEIAPTGIESLPVNFALRAIIEKYQQEDHPDIVTCPEHYRQPLNVYCLLDKKLVCGHCLTIGQHHGHPIDDLQSAYLKEKDTPQKLLEQLTDTHWTDLTHLIEKLKEQKSHSEKMIQGDKEAVLQYFKELNDTLEQKKKSFLTALCDVGNLINQEYTPQIERMKEIREQQLELMALTISLQEESPLKFLEKVDDVRQHVQILKQRPLPEVQPVEIYPRVSKILKEEWSRTEIGQIKNVLIPKMKISPKRMSCSWPGKDEKEVEFLKILNIVVVTLISVILMSILFFNQHIITFLSEITLIWFSEASLSVYQSLSNSLHKVKNILCHIFYLLKEFVWKIVSH
Regarding B1, the binding entry is given as “binds”.

The values are drawn from paper PMC11671593.
